Data source: PubChem BioAssay AID504791 (Drosophila RNAi Screening Center, 2011)
In all, the deposit lists about 23,000 reagents; this is an unselected part of those with a known target gene and a result. Of all reagents, 199 (0.86%) got an active call. 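Plate-scaled ratios behind the calls are not deposited; printed light signals are raw; many rows marked increased or decreased are still called inactive.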

Assay: 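Factors in Argonaute-based small RNA production and activity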 (primary screen)
Cells: Drosophila S2-derived reporter cells
Reagent: long dsRNA against Drosophila genes, about 150-250 ng dsRNA per well (siRNA assay); about 80-120 ng (miRNA assay)
Duration: about 5 days (siRNA assay); about 4 days (miRNA assay)
Challenge: copper sulfate induction of reporters: 25 µM (siRNA assay); 200 mM stated (miRNA assay), 1-2 days before reading
Read-out: 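Dual luciferase assay: Renilla to firefly signal ratio in each well, scaled to the mean ratio of its plate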
Direction: siRNA reporter hit score: higher = 3 marks a strong hit with raised ratio; -3 a strong hit with lowered ratio
Units: stable assay Renilla, run 1 in luminescence; stable assay firefly, run 1 in luminescence
Rule for the call: 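First-pass picks had plate-scaled ratios over 1.5 for the siRNA assay, over 1.6 for the miRNA assay, or under 0.6; two distinct dsRNAs had to score alike on retest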

For Elal [DRSC16662] the deposit lists stable assay Renilla, run 1 = 12452; stable assay firefly, run 1 = 5.16e5; inactive.
After knock-down of CG33489 [DRSC10588] the results were stable assay Renilla, run 1 = 6603; stable assay firefly, run 1 = 3.53e5; inactive.
With knock-down of CG17404 [DRSC15234], the record shows stable assay Renilla, run 1 = 6082; stable assay firefly, run 1 = 4.87e5; inactive.
With knock-down of tbrd-2 [DRSC07020], the record shows stable assay Renilla, run 1 = 5531; stable assay firefly, run 1 = 3.77e5; inactive.
Against CG12436 (retired record) [DRSC09869] the deposit lists siRNA reporter hit score -3; stable assay Renilla, run 1 = 7111; stable assay firefly, run 1 = 5.13e5; inactive.
For CG12436 (retired record) [DRSC09885] the deposit lists stable assay Renilla, run 1 = 7075; stable assay firefly, run 1 = 4.00e5; inactive.
After knock-down of Eip75B [DRSC11161], the record shows stable assay Renilla, run 1 = 6471; stable assay firefly, run 1 = 2.45e5; inactive.
Against Eip75B [DRSC23047], the entry reads stable assay Renilla, run 1 = 3527; stable assay firefly, run 1 = 2.54e5; inactive.
For Sgs1 [DRSC00787] the deposit lists stable assay Renilla, run 1 = 8791; stable assay firefly, run 1 = 4.03e5; inactive.
After knock-down of Sgs1 [DRSC00848] the results were stable assay Renilla, run 1 = 5123; stable assay firefly, run 1 = 4.66e5; inactive.
Knock-down of MED11 [DRSC10739] resulted in: stable siRNA reporter change reporter ratio raised past the hit cutoff; stable assay Renilla, run 1 = 5862; stable assay firefly, run 1 = 1.93e5; inactive.
Depletion of MED11 [DRSC23091] resulted in: stable assay Renilla, run 1 = 2780; stable assay firefly, run 1 = 2.53e5; inactive.
CG13667 [DRSC10028] showed stable assay Renilla, run 1 = 7975; stable assay firefly, run 1 = 3.99e5; inactive.
Depletion of CG42843 (retired record) [DRSC01118] resulted in: stable assay Renilla, run 1 = 5283; stable assay firefly, run 1 = 4.64e5; inactive.
Depletion of CG42843 (retired record) [DRSC02231] resulted in: stable assay Renilla, run 1 = 7135; stable assay firefly, run 1 = 4.47e5; inactive.
CG42843 (retired record) [DRSC02233] scored stable assay Renilla, run 1 = 6946; stable assay firefly, run 1 = 2.95e5; inactive.
With knock-down of GluRIA [DRSC11176], the record shows stable assay Renilla, run 1 = 6523; stable assay firefly, run 1 = 4.31e5; inactive.
Naa60 [DRSC10301] gave stable assay Renilla, run 1 = 5443; stable assay firefly, run 1 = 2.71e5; inactive.
For CG13917 [DRSC08386], the entry reads stable assay Renilla, run 1 = 3511; stable assay firefly, run 1 = 4.10e5; inactive.
CG7432 [DRSC16243] gave stable assay Renilla, run 1 = 9078; stable assay firefly, run 1 = 3.57e5; inactive.
Frq2 [DRSC20245] gave stable assay Renilla, run 1 = 5546; stable assay firefly, run 1 = 3.76e5; inactive.
For Twdlbeta [DRSC07310], the entry reads stable assay Renilla, run 1 = 6242; stable assay firefly, run 1 = 2.95e5; inactive.
Cubn2 [DRSC10561] gave stable assay Renilla, run 1 = 7599; stable assay firefly, run 1 = 4.77e5; inactive.
With knock-down of Cubn2 [DRSC22044] the results were stable assay Renilla, run 1 = 11571; stable assay firefly, run 1 = 7.18e5; inactive.
Silencing of CG13311 [DRSC09982] resulted in: stable assay Renilla, run 1 = 6555; stable assay firefly, run 1 = 4.04e5; inactive.
Archease [DRSC16025] showed stable assay Renilla, run 1 = 7652; stable assay firefly, run 1 = 4.42e5; inactive.
With knock-down of spir [DRSC03619] the results were stable assay Renilla, run 1 = 7971; stable assay firefly, run 1 = 5.02e5; inactive.
Depletion of sei [DRSC04713] resulted in: stable assay Renilla, run 1 = 2.48e5; stable assay firefly, run 1 = 9.13e5; inactive.

An excerpt taken from the entries so far:
Naa60 [DRSC10301]: stable assay Renilla, run 1 = 5443; stable assay firefly, run 1 = 2.71e5; activity call = inactive
CG13917 [DRSC08386]: stable assay Renilla, run 1 = 3511; stable assay firefly, run 1 = 4.10e5; activity call = inactive
